Results deposited as PubChem BioAssay AID686943 (Drosophila RNAi Screening Center, 2013)
The deposit covers about 23,000 reagents; below is an unselected part of those with a known target gene and a result. 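Extra replicates exist only for a retested subset of genes; insulin dose and duration not given; both raised and lowered dpERK matter.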 A plus sign joins genes that one reagent is predicted to hit. Not all columns of the deposit are shown. No sequences are given here. The record does not give: the amount of reagent, the time to read-out.

- Assay: 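Fly genes whose loss alters ERK activation after insulin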 (primary screen)
- Cells: Drosophila S2R+ haemocyte-like cells expressing YFP-tagged ERK (Rolled)
- Reagent: long dsRNA against Drosophila genes
- Challenge: insulin stimulation versus unstimulated cells; dose and duration not given
- Detection: 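Per-plate z-scores of phospho-ERK immunostaining normalised to YFP-tagged ERK, measured with and without insulin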
- Direction: replicate 1, z-score of dpERK with insulin: higher = more active ERK per ERK-YFP after insulin

PHDP (GeneID 37788) [DRSC04635] | replicate 1, z-score of dpERK with insulin = -0.01
Nox (GeneID 5740310) [DRSC06596] | replicate 1, z-score of dpERK with insulin = 1.34
Nox (GeneID 5740310) [DRSC06857] | replicate 1, z-score of dpERK with insulin = -0.64
Cpr78Cc (GeneID 40355) [DRSC11846] | replicate 1, z-score of dpERK with insulin = -0.05
CG15478 (GeneID 31679) [DRSC18057] | replicate 1, z-score of dpERK with insulin = 0.01
CG43111 (GeneID 12798347) [DRSC05796] | replicate 1, z-score of dpERK with insulin = 0.24
CG32191 (GeneID 317903) [DRSC10522] | replicate 1, z-score of dpERK with insulin = -1.39
ORMDL (GeneID 40404) [DRSC11737] | replicate 1, z-score of dpERK with insulin = 0.31
CG5323 (GeneID 37137) [DRSC06929] | replicate 1, z-score of dpERK with insulin = 0.52
mura (GeneID 41145) [DRSC16483] | replicate 1, z-score of dpERK with insulin = -0.04
mura (GeneID 41145) [DRSC16484] | replicate 1, z-score of dpERK with insulin = -5.36
His2B:CG33894 + His2B:CG33872 + His2B:CG33902 + 20 more [DRSC21265] | replicate 1, z-score of dpERK with insulin = -5.37
Flo2 (GeneID 32425) [DRSC19062] | replicate 1, z-score of dpERK with insulin = -0.14
Flo2 (GeneID 32425) [DRSC20244] | replicate 1, z-score of dpERK with insulin = -0.19
stil (GeneID 36380) [DRSC07699] | replicate 1, z-score of dpERK with insulin = -0.15
dachs (GeneID 34179) [DRSC01026] | replicate 1, z-score of dpERK with insulin = 0.95
dachs (GeneID 34179) [DRSC02072] | replicate 1, z-score of dpERK with insulin = -0.28
dachs (GeneID 34179) [DRSC02191] | replicate 1, z-score of dpERK with insulin = 0.29
rl (GeneID 3354888) [DRSC07833] | replicate 1, z-score of dpERK with insulin = -0.18
rl (GeneID 3354888) [DRSC20742] | replicate 1, z-score of dpERK with insulin = -0.75
rl (GeneID 3354888) [DRSC21814] | replicate 1, z-score of dpERK with insulin = -2.79
CG14292 (GeneID 42264) [DRSC14772] | replicate 1, z-score of dpERK with insulin = 0.42
mRpL40 (GeneID 41364) [DRSC15749] | replicate 1, z-score of dpERK with insulin = 0.38

A portion from the list above:
CG32191 (GeneID 317903) [DRSC10522] | replicate 1, z-score of dpERK with insulin = -1.39
ORMDL (GeneID 40404) [DRSC11737] | replicate 1, z-score of dpERK with insulin = 0.31
CG5323 (GeneID 37137) [DRSC06929] | replicate 1, z-score of dpERK with insulin = 0.52

The results go on:
CG32815 (GeneID 318224) [DRSC18177] | replicate 1, z-score of dpERK with insulin = 0.31
CG32815 (GeneID 318224) [DRSC18179] | replicate 1, z-score of dpERK with insulin = 0.15
lncRNA:CR9162 (GeneID 12798573) [DRSC03151] | replicate 1, z-score of dpERK with insulin = 0.17
CG3808 (GeneID 40074) [DRSC10377] | replicate 1, z-score of dpERK with insulin = -0.49
Ephrin (GeneID 43799) [DRSC17165] | replicate 1, z-score of dpERK with insulin = -0.43
2mit (GeneID 41616) [DRSC14194] | replicate 1, z-score of dpERK with insulin = 0.33
2mit (GeneID 41616) [DRSC15224] | replicate 1, z-score of dpERK with insulin = 0.37
CG12035 (GeneID 38217) [DRSC08238] | replicate 1, z-score of dpERK with insulin = -0.2
rngo (GeneID 32616) [DRSC19903] | replicate 1, z-score of dpERK with insulin = 0.45
Ag5r2 (GeneID 44079) [DRSC19328] | replicate 1, z-score of dpERK with insulin = -0.29
Gad1 (GeneID 38484) [DRSC08661] | replicate 1, z-score of dpERK with insulin = -0.78
BORCS6 (GeneID 38068) [DRSC08514] | replicate 1, z-score of dpERK with insulin = -0.41
CG15814 (GeneID 32765) [DRSC19730] | replicate 1, z-score of dpERK with insulin = -0.72
CG6712 (GeneID 34631) [DRSC02981] | replicate 1, z-score of dpERK with insulin = 0.19
CG6712 (GeneID 34631) [DRSC21690] | replicate 1, z-score of dpERK with insulin = -2.12
CkIIalpha-i3 (GeneID 38088) [DRSC08651] | replicate 1, z-score of dpERK with insulin = -1.39
Tsp74F (GeneID 39995) [DRSC10508] | replicate 1, z-score of dpERK with insulin = -0.39
